Data reported in PubChem BioAssay AID254 (DTP/NCI, 2004).
The list is a part of this screen's results and no random one: it is rich in T/C values a quarter to a half above the control, in often repeated tests (any T/C) and in doses without a T/C. Further doses and runs are listed elsewhere. T/C gives the treated animals as a percentage of the vehicle group. Some doses have a count of surviving animals in place of a T/C: the source files T/C as zero there, which appears to mark a toxic dose or a test without result, not a measured value. Some survivor counts are full or nearly so, which does not show that the dose was tolerated: the source hardly ever lists a survival T/C far under the control, and the zero likely stands for such cases as well. Survivors were counted at the toxicity check, usually on the fifth day, unless a day is given; later deaths do not show. Schedule codes are those of the source, taken here to give the interval after Q, in days (D) or hours (H), and the number of doses after X. Some entries hold several experiments; the results are listed from low to high. Some schedule codes hold Z or #, which are not explained here. For survival time, the PubChem record calls one and a half times the control and up active, and a quarter to a half above the control has no call in these data; cut-offs in other NCI protocols can differ. Counts like (3×) stand for listed records that agree. Some T/C values are followed by the survivors on the day toxicity was checked, most often the fifth; where none is given, no animal had died by that day.

Test system: L1210 leukemia iv in BDF1 mice, survival T/C
Assay: NCI In Vivo Anticancer Drug Screen. Data for tumor model L1210 Leukemia (intravenous) in B6D2F1 (BDF1) mice
Conditions: higher T/C = longer survival
Protocol: The antitumor activity of compounds was measured in mice bearing transplantable tumors. Survival or tumor size were measured and the results are expressed as the measurement made in the treated group (T) divided by the measurement made in the vehicle treated control group (C). The tumor model used in this assay is L1210 Leukemia (intravenous) in B6D2F1 (BDF1) mice

Nc1nc(=S)c2[nH]cnc2[nH]1
T/C (T/C endpoint: mean survival time, dose: 0.4 mg/kg/injection, schedule: Q01HX008 (ip), vehicle: alkali diluted with saline): 149 % of control | T/C (T/C endpoint: mean survival time, dose: 0.4 mg/kg/injection, schedule: Q03HX008 (ip), vehicle: alkali diluted with saline): 125 % of control | T/C (T/C endpoint: mean survival time, dose: 0.6 mg/kg/injection, schedule: Q03HX008 (ip), vehicle: alkali diluted with saline): 146 % of control | T/C (T/C endpoint: mean survival time, dose: 0.6 mg/kg/injection, schedule: Q06HX008 (ip), vehicle: alkali diluted with saline): 132 % of control | T/C (T/C endpoint: mean survival time, dose: 0.6 mg/kg/injection, schedule: Q12HX008 (ip), vehicle: alkali diluted with saline): 131 % of control | T/C (T/C endpoint: mean survival time, dose: 3.2 mg/kg/injection, schedule: Q01DX001 (ip), vehicle: alkali diluted with saline): 146 % of control

CCCCCCCCCCCCCCCC(=O)OCC1OC(n2ccc(N)nc2=O)C(O)C1O (stereo not given)
T/C (T/C endpoint: mean survival time, dose: 5.0 mg/kg/injection, schedule: Q01DX005 (ip), vehicle: other): 125 % of control | T/C (T/C endpoint: mean survival time, dose: 10.0 mg/kg/injection, schedule: Q01DX005 (ip), vehicle: other): 136 and 143 % of control | T/C (T/C endpoint: mean survival time, dose: 15.0 mg/kg/injection, schedule: Q01DX005 (ip), vehicle: other): 148 and 149 % of control | T/C (T/C endpoint: mean survival time, dose: 25.0 mg/kg/injection, schedule: Q01DX001 (ip), vehicle: other): 113, 138, 158, 192 % of control | T/C (T/C endpoint: mean survival time, dose: 50.0 mg/kg/injection, schedule: Q01DX001 (ip), vehicle: other): 153, 159, 183, 196 % of control | T/C (T/C endpoint: mean survival time, dose: 100.0 mg/kg/injection, schedule: Q01DX001 (ip), vehicle: other): 211, 220, 256, 287 % of control | T/C (T/C endpoint: mean survival time, dose: 150.0 mg/kg/injection, schedule: Q01DX001 (ip), vehicle: other): 194, 280, 338, 345 % of control | T/C (T/C endpoint: mean survival time, dose: 200.0 mg/kg/injection, schedule: Q01DX001 (ip), vehicle: other): 237, 275 (2×), 307 % of control | T/C (T/C endpoint: mean survival time, dose: 250.0 mg/kg/injection, schedule: Q01DX001 (ip), vehicle: other): 124, 192, 240, 246 % of control

COc1cccc2c1C(=O)c1c(O)c3c(c(O)c1C2=O)CC(O)(C(=O)CO)CC3OC1CC(N)C(O)C(C)O1 (stereo not given)
T/C (T/C endpoint: mean survival time, dose: 2.5 mg/kg/injection, schedule: Q01DX005 (iv), vehicle: saline): 128 % of control [8 of 9 alive] | survivor count (T/C endpoint: mean survival time, dose: 6.0 mg/kg/injection, schedule: Q01DX005 (iv), vehicle: saline): 9 of 9 | survivor count (T/C endpoint: mean survival time, dose: 7.0 mg/kg/injection, schedule: Q01DX005 (iv), vehicle: saline): 8 of 9

O=NN(CCCl)C(=O)NC1C2CC3CC(C2)CC1C3 (stereo not given)
T/C (T/C endpoint: mean survival time, dose: 45.0 mg/kg/injection, schedule: Q01DX001 (ip), vehicle: other): 134 % of control

CCOC(=O)C1CCC(NC(=O)N(CCCl)N=O)CC1 (stereo not given)
T/C (T/C endpoint: mean survival time, dose: 8.0 mg/kg/injection, schedule: Q01DX001 (ip), vehicle: other): 129 % of control | survivor count (T/C endpoint: mean survival time, dose: 30.0 mg/kg/injection, schedule: Q04DX004 (ip), vehicle: gum acacia): 10 of 10

O=NN(CCCl)C(=O)NC1CSCSC1
T/C (T/C endpoint: mean survival time, dose: 4.0 mg/kg/injection, schedule: Q01DX001 (ip), vehicle: other): 129 % of control | survivor count (T/C endpoint: mean survival time, dose: 16.5 mg/kg/injection, schedule: Q04DX004 (ip), vehicle: saline with Tween-80): 10 of 10

O=NN(CCF)C(=O)NCCCl
survivor count (T/C endpoint: mean survival time, dose: 48.0 mg/kg/injection, schedule: Q01DX001 (ip), vehicle: Klucel (hydroxypropylcellulose) (HPC)): 6 of 10 | survivor count (T/C endpoint: mean survival time, dose: 71.0 mg/kg/injection, schedule: Q01DX001 (ip), vehicle: Klucel (hydroxypropylcellulose) (HPC)): 2 of 10 and 6 of 10

CC[C@H]1CN2CCc3cc(OC)c(OC)cc3[C@@H]2C[C@@H]1C[C@H]1NCCc2cc(OC)c(OC)cc21
survivor count (T/C endpoint: median survival time, dose: 16.0 mg/kg/injection, schedule: Q## X001 (ip), vehicle: saline): 5 of 10 | survivor count (T/C endpoint: median survival time, dose: 32.0 mg/kg/injection, schedule: Q## X001 (ip), vehicle: saline): 6 of 10 | survivor count (T/C endpoint: median survival time, dose: 48.0 mg/kg/injection, schedule: Q## X001 (ip), vehicle: saline): 1 of 10

COc1cc([C@@H]2c3cc4c(cc3[C@@H](OC3OC5COC(C)OC5C(O)C3O)[C@H]3COC(=O)[C@H]23)OCO4)cc(OC)c1O (stereo not given in full)
T/C (T/C endpoint: mean survival time, dose: 18.0 mg/kg/injection, schedule: Q04DX003 (ip), vehicle: saline): 128 % of control | T/C (T/C endpoint: mean survival time, dose: 27.0 mg/kg/injection, schedule: Q04DX003 (ip), vehicle: saline): 143 % of control

N[C@@H](Cc1ccc(N(CCCl)CCCl)cc1)C(=O)O
T/C (T/C endpoint: mean survival time, dose: 6.6 mg/kg/injection, schedule: Q01DX001 (ip), vehicle: saline): 147 % of control | T/C (T/C endpoint: mean survival time, dose: 7.0 mg/kg/injection, schedule: Q01DX001 (ip), vehicle: carboxymethylcellulose (CMC)): 125 % of control | T/C (T/C endpoint: mean survival time, dose: 7.5 mg/kg/injection, schedule: Q01DX001 (ip), vehicle: saline): 144 % of control | T/C (T/C endpoint: mean survival time, dose: 9.0 mg/kg/injection, schedule: Q01DX001 (ip), vehicle: carboxymethylcellulose (CMC)): 127 % of control | T/C (T/C endpoint: mean survival time, dose: 9.5 mg/kg/injection, schedule: Q01DX001 (ip), vehicle: Klucel (hydroxypropylcellulose) (HPC), evaluated on day 3): 137 % of control | T/C (T/C endpoint: mean survival time, dose: 9.5 mg/kg/injection, schedule: Q01DX001 (ip), vehicle: Klucel (hydroxypropylcellulose) (HPC), evaluated on day 60): 137 % of control | T/C (T/C endpoint: mean survival time, dose: 10.0 mg/kg/injection, schedule: Q01DX001 (ip), vehicle: saline): 146 and 147 % of control | T/C (T/C endpoint: mean survival time, dose: 14.0 mg/kg/injection, schedule: Q01DX001 (ip), vehicle: carboxymethylcellulose (CMC)): 136 % of control [9 of 10 alive] | T/C (T/C endpoint: mean survival time, dose: 29.0 mg/kg/injection, schedule: Q01DX001 (ip), vehicle: carboxymethylcellulose (CMC)): 131 % of control

COc1cccc2c1C(=O)c1c(O)c3c(c(O)c1C2=O)C[C@@](O)(C(C)=O)C[C@@H]3OC1CC(N)C(O)C(C)O1 (stereo not given in full)
T/C (T/C endpoint: mean survival time, dose: 8.4 mg/kg/injection, schedule: Q04DX003 (iv), vehicle: water, evaluated on day 5): 134 % of control | T/C (T/C endpoint: mean survival time, dose: 8.4 mg/kg/injection, schedule: Q04DX003 (iv), vehicle: water, evaluated on day 60): 134 % of control | T/C (T/C endpoint: mean survival time, dose: 15.0 mg/kg/injection, schedule: Q01DX001 (iv), vehicle: saline, evaluated on day 5): 135 % of control | T/C (T/C endpoint: mean survival time, dose: 15.0 mg/kg/injection, schedule: Q01DX001 (iv), vehicle: saline, evaluated on day 45): 135 % of control | survivor count (T/C endpoint: mean survival time, dose: 23.0 mg/kg/injection, schedule: Q04DX003 (iv), vehicle: water): 7 of 8

O=NN(CCF)C(=O)NC1CSCSC1
T/C (T/C endpoint: mean survival time, dose: 3.7 mg/kg/injection, schedule: Q01DX001 (ip), vehicle: other): 139 % of control
